Results deposited as PubChem BioAssay AID1259308 (NCATS, 2017).
Shown is a random part of about 59,000 reagents tested. About 1,510 of them (2.6%) were called active. 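Calls use total luciferase alone and ignore viability, so some active siRNAs may act by altering cell number.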 A number with no mark means an inactive call. Reagent sequences are not shown.

Aim: 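Genes whose loss raises luciferase production in HEK293 cells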 (primary screen)
Cell system: human HEK293 embryonic kidney cells stably expressing firefly luciferase (HEK-CMV-Luc2-Hygro)
Knock-down reagent: single siRNA against human genes, 0.8 pmol siRNA per well
Time to read-out: 72 h
Measured: 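Reporter luminescence and viable-cell signal on separate replicate plates, given as percent of non-targeting control and median/MAD z-scores, plus per-cell luciferase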
Reading the numbers: total luciferase, z-score and total luciferase, % of control: higher = more reporter protein produced; luciferase per cell, z-score: higher = more reporter output per viable cell; viable cells, % of control: higher = more viable cells
Hit rule: 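An siRNA counts as active if its total luciferase robust z-score exceeds 3; genes with two or more such siRNAs out of three were retested with fresh siRNAs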
Calls: active = raised luciferase; inactive = no rise

target gene	PubChem SID	total luciferase, z-score	total luciferase, % of control	luciferase per cell, z-score	viable cells, % of control
DHX58	SID160748662	0.0516	82.9	-0.127	95.8
DHX58	SID160748663	0.0931	83.7	-0.0448	94.7
DHX58	SID160748664	-0.158	78.7	-0.4	97.8
ZNF25	SID160761343	-0.401	73.9	2.02	48.5
ZNF25	SID160761344	-0.891	64.2	-0.319	78
ZNF25	SID160761345	-1.43	53.5	-0.797	73.7
B3GNT9	SID160752676	-0.0036	81.8	-0.0154	91.8
B3GNT9	SID160752677	-0.0797	80.3	-0.583	105
B3GNT9	SID160752678	1.79	117	1.16	96.8
DLGAP4	SID160731825	2.37	129	1.67	92.8
DLGAP4	SID160731834	-0.897	64.1	-0.211	75.7
DLGAP4	SID160731842	0.335	88.6	0.871	78.7
KCNJ12	SID160776194	0.0519	82.9	-0.0448	93.8
KCNJ12	SID160776195	-1	62	-0.0408	70
KCNJ12	SID160776196	0.565	93.1	-0.262	111
LOC644285	SID160769174	0.968	101	0.822	91
LOC644285	SID160769175	0.792	97.6	2.76	52.8
LOC644285	SID160769176	1.74	116	1.54	86.8
AK5	SID160737924	-1.89	44.3	-1.47	72.8
AK5	SID160737925	0.312	88.1	-0.538	113
AK5	SID160737926	0.432	90.5	-0.104	104
C12orf57	SID160754817	0.296	87.8	0.274	91.3
C12orf57	SID160754818	0.157	85	0.473	83.9
C12orf57	SID160754819	-1.19	58.3	-0.639	77.1

Laid out differently: entries from further up.
{"target gene":"KCNJ12","PubChem SID":"SID160776195","total luciferase, z-score":-1,"total luciferase, % of control":62,"luciferase per cell, z-score":-0.0408,"viable cells, % of control":70}
{"target gene":"KCNJ12","PubChem SID":"SID160776196","total luciferase, z-score":0.565,"total luciferase, % of control":93.1,"luciferase per cell, z-score":-0.262,"viable cells, % of control":111}
{"target gene":"LOC644285","PubChem SID":"SID160769174","total luciferase, z-score":0.968,"total luciferase, % of control":101,"luciferase per cell, z-score":0.822,"viable cells, % of control":91}
{"target gene":"LOC644285","PubChem SID":"SID160769175","total luciferase, z-score":0.792,"total luciferase, % of control":97.6,"luciferase per cell, z-score":2.76,"viable cells, % of control":52.8}
